No constants are given. Whether binding was seen depends on the method and setting. A result given as binding can be weak or reduced; the word gives no strength.

By UniProt entry, the sequences of proteins in these tests, tags left out. Where a name states a change or a piece, a line headed by the entry shows the natural chain unless it says otherwise.
UniProt Q6UXZ4: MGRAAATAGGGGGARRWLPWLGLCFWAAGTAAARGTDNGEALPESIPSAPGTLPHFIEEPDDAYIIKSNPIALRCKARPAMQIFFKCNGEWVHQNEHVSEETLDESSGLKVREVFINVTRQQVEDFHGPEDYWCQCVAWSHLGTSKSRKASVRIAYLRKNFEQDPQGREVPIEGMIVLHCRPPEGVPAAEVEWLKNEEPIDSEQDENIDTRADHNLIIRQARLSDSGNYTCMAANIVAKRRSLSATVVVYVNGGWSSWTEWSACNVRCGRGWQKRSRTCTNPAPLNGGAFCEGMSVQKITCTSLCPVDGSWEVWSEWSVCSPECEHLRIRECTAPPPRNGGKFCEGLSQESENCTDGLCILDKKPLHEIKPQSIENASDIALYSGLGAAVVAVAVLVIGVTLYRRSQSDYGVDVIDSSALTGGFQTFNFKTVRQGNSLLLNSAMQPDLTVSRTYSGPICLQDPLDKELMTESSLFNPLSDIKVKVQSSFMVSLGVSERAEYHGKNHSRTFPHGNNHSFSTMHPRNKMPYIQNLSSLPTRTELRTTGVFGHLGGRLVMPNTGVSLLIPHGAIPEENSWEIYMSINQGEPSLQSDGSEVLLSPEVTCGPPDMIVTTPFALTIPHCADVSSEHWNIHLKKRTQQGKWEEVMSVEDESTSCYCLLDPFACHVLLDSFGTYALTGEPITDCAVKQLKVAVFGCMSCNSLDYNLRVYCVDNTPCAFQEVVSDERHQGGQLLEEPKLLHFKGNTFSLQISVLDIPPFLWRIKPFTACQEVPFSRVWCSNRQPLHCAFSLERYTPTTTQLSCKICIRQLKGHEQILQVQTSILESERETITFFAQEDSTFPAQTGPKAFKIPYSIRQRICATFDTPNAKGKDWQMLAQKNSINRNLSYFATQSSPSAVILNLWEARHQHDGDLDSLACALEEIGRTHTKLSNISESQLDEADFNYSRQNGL

This assay has as its target T1, mouse FLRT2 ectodomain (FLRT2^ecto), ITC construct (mouse) (UniProt Q8BLU0).
T1 sequence: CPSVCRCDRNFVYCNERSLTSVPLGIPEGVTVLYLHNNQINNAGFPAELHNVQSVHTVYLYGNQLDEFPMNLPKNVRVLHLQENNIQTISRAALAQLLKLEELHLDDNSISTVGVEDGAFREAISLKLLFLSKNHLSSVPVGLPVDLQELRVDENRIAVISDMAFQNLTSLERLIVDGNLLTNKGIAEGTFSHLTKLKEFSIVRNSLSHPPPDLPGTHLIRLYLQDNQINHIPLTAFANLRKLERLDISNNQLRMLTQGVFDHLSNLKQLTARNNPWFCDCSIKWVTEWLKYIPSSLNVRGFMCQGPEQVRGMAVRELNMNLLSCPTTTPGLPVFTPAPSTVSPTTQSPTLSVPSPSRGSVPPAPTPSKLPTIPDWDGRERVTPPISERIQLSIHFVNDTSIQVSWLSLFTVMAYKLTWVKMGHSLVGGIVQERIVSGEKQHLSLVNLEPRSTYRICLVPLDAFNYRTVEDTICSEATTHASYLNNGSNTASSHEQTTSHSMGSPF
Nature of the assay: ITC; MicroCal iTC200, 25 °C; 100 μM protein in the syringe, 10 μM in the cell; for the triple complex FLRT2^ecto+Lphn3^Olf in the cell and Unc5D^ecto injected; single-site model; both purified. In general terms: Isothermal titration calorimetry measures the heat released or taken up as one component is titrated into another.

Turning to “Unc5D ectodomain (Unc5D^ecto), ITC construct (from UniProt Q6UXZ4) (domain or fragment)”, the binding result is “binds”.

The values are drawn from paper PMC4838878.
